Measurements taken from PubChem BioAssay AID743123 (Broad Institute, 2013).
These results got no clear call from the source, so the numbers are uncertain.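 Rule for the calls: active = inhibition with a half-effect concentration no higher than twice the top valid dose tested; inconclusive = flat fit inhibiting 30 to 70%, or a poor fit; inactive = effect in the wrong direction, plus the rest.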

Assay: antifungal activity under osmotic support – alamar blue, sorbitol added, dry powder, counter-screen for C. neoformans cell wall antifungals, dose response (AID 743123)
Details: 24 h; at 35 µM (top of the series)

**Q.** For `O=c1[nH]c2ccccc2n1CCOc1ccccc1`, which activity change, negative = inhibition is on record?
**A.** Its activity change, negative = inhibition is inconclusive: -38%.
